Taken from: PubChem BioAssay AID652272 (Drosophila RNAi Screening Center, 2013)
In all, the deposit lists about 21,000 reagents; shown is an unselected part of those that have a named target and a result. Of all reagents, 503 (2.4%) are marked active. 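Raw plate light values, not normalised; calls rest on replicate z-scores that were not deposited; hits include reporter decreases as well as increases.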 Not given: the amount of reagent, the time to read-out.

Aim: 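Finding fly genes that regulate Hedgehog signal transduction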 (primary screen)
System: Drosophila clone 8 (Cl8) cells
Reagents: long dsRNA against Drosophila genes
Measured: 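Plate reader light from a firefly reporter under a ptc promoter fragment that responds to Hedgehog, with Renilla light as transfection reference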
Scale: firefly Hh reporter signal: higher = more ptc reporter light; Renilla reference signal: higher = more Renilla control light
Hit rule: 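Called a hit if the two-replicate mean z-score lies below -2 or above +3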
Calls: active = hit: reporter lowered or raised; inactive = not a hit

For CG11816 [DRSC19428], how do the results read?
firefly Hh reporter signal, replicate 1: 63415; firefly Hh reporter signal, replicate 2: 1.49e5; Renilla reference signal, replicate 1: 1465; Renilla reference signal, replicate 2: 5573; activity call: inactive

Which result is listed for Gcn2 [DRSC16678]?
firefly Hh reporter signal, replicate 1: 56411; firefly Hh reporter signal, replicate 2: 67112; Renilla reference signal, replicate 1: 1705; Renilla reference signal, replicate 2: 1993; activity call: inactive

How did the screen score CG3690 [DRSC18170]?
firefly Hh reporter signal, replicate 1: 1.13e5; firefly Hh reporter signal, replicate 2: 3.05e5; Renilla reference signal, replicate 1: 3014; Renilla reference signal, replicate 2: 11914; activity call: inactive

With CG3690 [DRSC18641], what does the deposit list?
firefly Hh reporter signal, replicate 1: 79922; firefly Hh reporter signal, replicate 2: 2.33e5; Renilla reference signal, replicate 1: 2483; Renilla reference signal, replicate 2: 8888; activity call: inactive

No new results follow: an excerpt of the list.
Gcn2 [DRSC16678] — firefly Hh reporter signal, replicate 1: 56411; firefly Hh reporter signal, replicate 2: 67112; Renilla reference signal, replicate 1: 1705; Renilla reference signal, replicate 2: 1993; activity call: inactive
CG3690 [DRSC18170] — firefly Hh reporter signal, replicate 1: 1.13e5; firefly Hh reporter signal, replicate 2: 3.05e5; Renilla reference signal, replicate 1: 3014; Renilla reference signal, replicate 2: 11914; activity call: inactive

More records:
With CG14837 [DRSC10207], how do the results read?
firefly Hh reporter signal, replicate 1: 42240; firefly Hh reporter signal, replicate 2: 53688; Renilla reference signal, replicate 1: 4625; Renilla reference signal, replicate 2: 3532; activity call: inactive

With PHDP [DRSC04635], how do the results read?
firefly Hh reporter signal, replicate 1: 86535; firefly Hh reporter signal, replicate 2: 69449; Renilla reference signal, replicate 1: 1808; Renilla reference signal, replicate 2: 5868; activity call: inactive

For ATPsynF [DRSC04482], how do the results read?
firefly Hh reporter signal, replicate 1: 1.16e5; firefly Hh reporter signal, replicate 2: 1.05e5; Renilla reference signal, replicate 1: 4258; Renilla reference signal, replicate 2: 3869; activity call: inactive

With CG3847 [DRSC17444], what does the deposit list?
firefly Hh reporter signal, replicate 1: 5.43e5; firefly Hh reporter signal, replicate 2: 1.80e5; Renilla reference signal, replicate 1: 30477; Renilla reference signal, replicate 2: 3709; activity call: inactive

What is on record for CG3847 [DRSC18327]?
firefly Hh reporter signal, replicate 1: 74069; firefly Hh reporter signal, replicate 2: 60860; Renilla reference signal, replicate 1: 2035; Renilla reference signal, replicate 2: 1651; activity call: inactive

What did the screen give for lt [DRSC03759]?
firefly Hh reporter signal, replicate 1: 81669; firefly Hh reporter signal, replicate 2: 49591; Renilla reference signal, replicate 1: 2390; Renilla reference signal, replicate 2: 4681; activity call: inactive

Which result is listed for CG13991 [DRSC02323]?
firefly Hh reporter signal, replicate 1: 1.28e5; firefly Hh reporter signal, replicate 2: 66352; Renilla reference signal, replicate 1: 3232; Renilla reference signal, replicate 2: 6473; activity call: inactive

For CG15040 [DRSC19616], what was measured?
firefly Hh reporter signal, replicate 1: 5.71e5; firefly Hh reporter signal, replicate 2: 1.22e5; Renilla reference signal, replicate 1: 4253; Renilla reference signal, replicate 2: 4253; activity call: inactive
